Measured values from PubChem BioAssay AID192 (DTP/NCI, 2004).
The list shows only some results of the screen, not a fair sample: it is rich in T/C values a quarter to a half above the control, in often repeated tests (any T/C) and in doses without a T/C. Further doses and runs are listed elsewhere. T/C gives the treated animals as a percentage of the vehicle group. Some entries give survivors of the animals treated and no T/C: the source files T/C as zero there, which appears to mark a toxic dose or a test without result, not a measured value. Some doses without a T/C left all or most animals alive at the check, yet need not have been tolerated: survival well below the control is almost never listed, so the zero probably covers shortened survival too. Survivors were counted at the toxicity check, usually on the fifth day, unless a day is given; later deaths do not show. Schedules are NCI's codes, read here as Q, the interval in days (D) or hours (H), X, the number of doses. Some doses were run more than once; the results are listed from low to high. Where survival is the endpoint, this PubChem deposit counts one and a half times the control or more as active, and values a quarter to a half above the control carry no call in these data; other NCI protocols may use other cut-offs. Some T/C values carry the count of animals alive at the toxicity check (mostly the fifth day); where none is given, no animal had died by that day.

System: BDF1 mice, B16 melanoma ip, median survival T/C
Experiment: NCI In Vivo Anticancer Drug Screen. Data for tumor model B16 Melanoma (intraperitoneal) in B6D2F1 (BDF1) mice
Conditions: T/C endpoint: median survival time, higher T/C = longer survival
Procedure, shortened: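 Each result divides a survival or tumor-size measurement in the compound-treated group by the same measurement in the vehicle group.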

[1] = dose: 25.0 mg/kg/injection, schedule: Q01DX009 (ip), vehicle: saline with Tween-80
[2] = dose: 50.0 mg/kg/injection, schedule: Q01DX009 (ip), vehicle: saline with Tween-80
[3] = dose: 100.0 mg/kg/injection, schedule: Q01DX009 (ip), vehicle: saline with Tween-80
[4] = dose: 400.0 mg/kg/injection, schedule: Q01DX009 (ip), vehicle: saline with Tween-80
[5] = dose: 37.5 mg/kg/injection, schedule: Q01DX009 (ip), vehicle: other
[6] = dose: 50.0 mg/kg/injection, schedule: Q01DX009 (ip), vehicle: Klucel (hydroxypropylcellulose) (HPC)
[7] = dose: 100.0 mg/kg/injection, schedule: Q01DX009 (ip), vehicle: Klucel (hydroxypropylcellulose) (HPC)
[8] = dose: 200.0 mg/kg/injection, schedule: Q01DX009 (ip), vehicle: saline with Tween-80
[9] = dose: 200.0 mg/kg/injection, schedule: Q01DX009 (ip), vehicle: Klucel (hydroxypropylcellulose) (HPC)

`CC(=O)O[C@H]1C(=O)O[C@@H]2C[C@H]3C(C)=CC(=O)[C@@H](O)[C@]3(C)[C@H]3[C@@]4(O)OC[C@]32[C@@H]1[C@@H](C)[C@H]4O` was tested, and the T/C (dose: 3.0 mg/kg/injection, schedule: Q01DX009 (ip), vehicle: Klucel (hydroxypropylcellulose) (HPC)) was 127 % of control, the T/C (dose: 6.0 mg/kg/injection, schedule: Q01DX009 (ip), vehicle: Klucel (hydroxypropylcellulose) (HPC)) was 131 % of control and the T/C (dose: 12.0 mg/kg/injection, schedule: Q01DX009 (ip), vehicle: Klucel (hydroxypropylcellulose) (HPC)) was 128 % of control. For the same molecule, the T/C (dose: 12.0 mg/kg/injection, schedule: Q01DX009 (ip), vehicle: saline) was 125 % of control, the survivor count [1] was 2 of 10 and the survivor count [2] was 0 of 10.

`CCC/C=C/C=C/C1CC(O)C(O)C(=O)C1C=O` (stereo unspecified) was tested, and the survivor count [1] was 9 of 10, the survivor count [2] was 0 of 10 and the survivor count [3] was 0 of 10.

In the case of `NP(Cl)(c1ccccc1)(c1ccccc1)c1ccccc1`, the survivor count (dose: 0.2 mg/kg/injection, schedule: Q01DX009 (ip), vehicle: Klucel (hydroxypropylcellulose) (HPC)) is reported as 9 of 10 and the survivor count (dose: 0.78 mg/kg/injection, schedule: Q01DX009 (ip), vehicle: Klucel (hydroxypropylcellulose) (HPC)) is reported as 9 of 10.

With `O=C1C=C(c2ccccc2)C(O)(c2ccccc2)C1` (stereo unspecified) the survivor count [4] was 3 of 10.

`CNC(=O)OCc1c(COC(=O)NC)c(-c2ccccc2)n(C)c1-c1ccccc1` was tested, and the survivor count (dose: 50.0 mg/kg/injection, schedule: Q01DX009 (ip), vehicle: distilled water + Tween-80) was 10 of 10 and the survivor count (dose: 100.0 mg/kg/injection, schedule: Q01DX009 (ip), vehicle: distilled water + Tween-80) was 7 of 10.

`CSCS(=O)C[C@H](CO)NC(=O)/C=C/c1c(C)[nH]c(=O)[nH]c1=O` (stereo partly specified) was tested, and the survivor count (dose: 0.13 mg/kg/injection, schedule: Q01DX009 (ip), vehicle: Klucel (hydroxypropylcellulose) (HPC)) was 10 of 10, the survivor count (dose: 0.25 mg/kg/injection, schedule: Q01DX009 (ip), vehicle: carboxymethylcellulose (CMC)) was 10 of 10 and the survivor count (dose: 0.5 mg/kg/injection, schedule: Q01DX009 (ip), vehicle: carboxymethylcellulose (CMC)) was 8 of 10. For the same molecule, the survivor count (dose: 1.0 mg/kg/injection, schedule: Q01DX009 (ip), vehicle: carboxymethylcellulose (CMC)) was 9 of 10, the survivor count (dose: 1.2 mg/kg/injection, schedule: Q01DX009 (ip), vehicle: water) was 2 of 10 and the survivor count (dose: 2.0 mg/kg/injection, schedule: Q01DX009 (ip), vehicle: carboxymethylcellulose (CMC)) was 8 of 10. For the same molecule, the survivor count (dose: 2.86 mg/kg/injection, schedule: Q04DX003 (ip), vehicle: saline) was 6 of 8 and the survivor count (dose: 4.08 mg/kg/injection, schedule: Q04DX003 (ip), vehicle: saline) was 7 of 8.

`C[n+]1ccc(Nc2ccc(NC(=O)c3ccc(Nc4cc[n+](C)c5ccc([N+](=O)[O-])cc45)cc3)cc2)cc1` was tested, and the survivor count (dose: 64.0 mg/kg/injection, schedule: Q01DX009 (ip), vehicle: saline) was 10 of 10 and the survivor count (dose: 128.0 mg/kg/injection, schedule: Q01DX009 (ip), vehicle: saline) was 10 of 10.

`C=C1[C@@H](O)[C@]2(O)OC[C@@]34[C@H]1[C@@H](OC(=O)C(C)CC)C(=O)O[C@@H]3C[C@H]1C(C)=CC(=O)[C@@H](O)[C@]1(C)[C@@H]24` (stereo partly specified) was tested, and the T/C (dose: 0.25 mg/kg/injection, schedule: Q01DX009 (ip), vehicle: saline with Tween-80) was 127 % of control and the T/C (dose: 2.0 mg/kg/injection, schedule: Q01DX009 (ip), vehicle: saline with Tween-80) was 125 % of control.

For `CCCCCCOC(CN(C)C)C(Cl)(Cl)Cl` (stereo unspecified), the survivor count (dose: 200.0 mg/kg/injection, schedule: Q01DX009 (ip), vehicle: distilled water + Tween-80) was 9 of 10, the survivor count (dose: 400.0 mg/kg/injection, schedule: Q01DX009 (ip), vehicle: distilled water + Tween-80) was 7 of 10 and the survivor count [4] was 8 of 10.

`c1ccc([I+]c2ccccc2)cc1` was tested, and the survivor count (dose: 12.0 mg/kg/injection, schedule: Q01DX009 (sc), vehicle: olive oil, sesame oil, peanut oil) was 10 of 10 and the survivor count (dose: 25.0 mg/kg/injection, schedule: Q01DX009 (sc), vehicle: olive oil, sesame oil, peanut oil) was 2 of 10.

`Cn1cnc([N+](=O)[O-])c1[Se]c1nc(N)nc2nc[nH]c12` was tested, and the T/C (dose: 6.25 mg/kg/injection, schedule: Q01DX009 (ip), vehicle: water) was 135 % of control, the T/C (dose: 11.0 mg/kg/injection, schedule: Q01DX009 (ip), vehicle: other) was 133 % of control and the T/C (dose: 12.5 mg/kg/injection, schedule: Q01DX009 (ip), vehicle: water) was 139 % of control. The T/C (dose: 16.5 mg/kg/injection, schedule: Q01DX009 (ip), vehicle: other) was 137 % of control, the T/C (dose: 25.0 mg/kg/injection, schedule: Q01DX009 (ip), vehicle: other) was 135 and 142 % of control and the T/C [5] was 143 % of control [9 of 10 alive]. The survivor count [5] was 8 of 10, the survivor count (dose: 50.0 mg/kg/injection, schedule: Q01DX009 (ip), vehicle: water) was 4 of 10 and 8 of 10 and the survivor count (dose: 100.0 mg/kg/injection, schedule: Q01DX009 (ip), vehicle: water) was 0 of 10 and 2 of 10.

`O=C(CCl)c1ccc(O)c(O)c1` was tested, and the survivor count [6] was 9 of 10, the survivor count [7] was 0 of 10 and the survivor count (dose: 150.0 mg/kg/injection, schedule: Q01DX009 (ip), vehicle: Klucel (hydroxypropylcellulose) (HPC)) was 0 of 10.

In the case of `CCCCCCCCCCCC[N+](C)(C)C` (tested in a mixture with another compound), the survivor count (dose: 28.0 mg/kg/injection, schedule: Q01DX009 (ip), vehicle: saline) is reported as 10 of 10.

`CCCCC(=O)OCC1OC(n2cnc3c(=S)nc[nH]c32)C(OC(=O)CCCC)C1OC(=O)CCCC` (stereo unspecified) was tested, and the survivor count [2] was 10 of 10, the survivor count [3] was 9 of 10 and the survivor count [8] was 10 of 10.

In the case of `CCOC(=O)NC(C(=O)OC)C(=O)OC`, the survivor count [7] is reported as 10 of 10.

`NC(CCC(=O)NC(CS)C(=O)NCC(=O)O)C(=O)O` (stereo unspecified) was tested, and the T/C (dose: 25.0 mg/kg/injection, schedule: Q01DX009 (ip), vehicle: saline) was 126 % of control.

In the case of `CCOC(=O)c1[nH]c(C#N)c(C(=O)OCC)c1C`, the survivor count [3] is reported as 10 of 10, the survivor count [8] is reported as 10 of 10 and the survivor count [4] is reported as 10 of 10.

With `FC(F)(F)c1ccc(Cl)c(NC2=NCCCS2)c1` the survivor count [9] was 10 of 10.

With `Nc1ccn(C2OC(COC(=O)C34CC5CC(CC(C5)C3)C4)C(O)C2O)c(=O)n1` (stereo unspecified) the survivor count [2] was 9 of 10 and 10 of 10, the survivor count [3] was 9 of 10 and the survivor count [8] was 2 of 10.

With `CCOC(=O)C(Cc1ccccc1)NP(=O)(OCCCl)OCCCl` (stereo unspecified) the survivor count (dose: 400.0 mg/kg/injection, schedule: Q04DX003 (ip), vehicle: Klucel (hydroxypropylcellulose) (HPC)) was 10 of 10.

`C(COCC1CO1)OCC1CO1` (stereo unspecified) was tested, and the survivor count (dose: 200.0 mg/kg/injection, schedule: Q01DX009 (ip), vehicle: saline) was 2 of 10.

With `Oc1c(Br)cc(Br)cc1/C=N/N=C/c1cc(Br)cc(Br)c1O` the survivor count (dose: 400.0 mg/kg/injection, schedule: Q01DX009 (ip), vehicle: Klucel (hydroxypropylcellulose) (HPC)) was 10 of 10.

With `O=C1c2ccccc2C(=O)c2c(NCCNCCO)ccc(O)c21` the T/C (dose: 40.0 mg/kg/injection, schedule: Q01DX009 (ip), vehicle: suspension in saline) was 142 % of control.

With `CC(C(=O)O)C(=O)O.[NH2-].[NH2-].[Pt+2]` the T/C (dose: 6.25 mg/kg/injection, schedule: Q01DX009 (ip), vehicle: Klucel (hydroxypropylcellulose) (HPC)) was 129 % of control, the survivor count [6] was 10 of 10 and the survivor count [7] was 4 of 10. For the same molecule, the survivor count [9] was 1 of 10.

In the case of `CCCCC1CCCCCCc2[nH]c(/C=C3\N=C(c4ccc[nH]4)C=C3OC)cc21` (stereo unspecified), the survivor count (dose: 1000.0 micrograms/kg/injection, schedule: Q01DX009 (ip), vehicle: saline with Tween-80) is reported as 10 of 10 and the survivor count (dose: 2000.0 micrograms/kg/injection, schedule: Q01DX009 (ip), vehicle: saline with Tween-80) is reported as 8 of 10.
